Measurements: PMC11139901

The chains behind the UniProt entries cited, without tags or fusion partners.
UniProt P26599: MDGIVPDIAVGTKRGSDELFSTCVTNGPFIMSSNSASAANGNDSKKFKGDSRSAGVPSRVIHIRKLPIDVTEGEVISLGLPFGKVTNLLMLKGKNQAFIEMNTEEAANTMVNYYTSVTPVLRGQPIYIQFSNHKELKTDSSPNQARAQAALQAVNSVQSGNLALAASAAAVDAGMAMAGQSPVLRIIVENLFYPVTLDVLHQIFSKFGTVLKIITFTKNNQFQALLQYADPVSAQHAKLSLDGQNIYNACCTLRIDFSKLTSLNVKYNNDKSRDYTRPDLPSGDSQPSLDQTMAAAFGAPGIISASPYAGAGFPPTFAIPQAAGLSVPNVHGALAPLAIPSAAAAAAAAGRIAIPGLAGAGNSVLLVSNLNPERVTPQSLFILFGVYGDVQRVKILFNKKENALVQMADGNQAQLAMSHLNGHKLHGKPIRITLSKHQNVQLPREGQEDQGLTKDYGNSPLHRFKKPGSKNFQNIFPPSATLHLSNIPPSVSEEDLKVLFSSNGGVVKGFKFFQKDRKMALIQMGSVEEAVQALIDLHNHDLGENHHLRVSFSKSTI

How the values were obtained:
Experiment in all cases: affinity purification with mass spectrometry; lysate (1 ml of 1 mg/ml) of 293T cells transfected with Dbr1-FLAG, anti-FLAG M2 magnetic beads, no nuclease treatment, eluted with SDS-PAGE loading dye; control: un-transfected 293T cells; semi-quantitative spectral counts
[1] = target: T1, FLAG-tagged Dbr1 (human) (UniProt Q9UK59)
T1 sequence: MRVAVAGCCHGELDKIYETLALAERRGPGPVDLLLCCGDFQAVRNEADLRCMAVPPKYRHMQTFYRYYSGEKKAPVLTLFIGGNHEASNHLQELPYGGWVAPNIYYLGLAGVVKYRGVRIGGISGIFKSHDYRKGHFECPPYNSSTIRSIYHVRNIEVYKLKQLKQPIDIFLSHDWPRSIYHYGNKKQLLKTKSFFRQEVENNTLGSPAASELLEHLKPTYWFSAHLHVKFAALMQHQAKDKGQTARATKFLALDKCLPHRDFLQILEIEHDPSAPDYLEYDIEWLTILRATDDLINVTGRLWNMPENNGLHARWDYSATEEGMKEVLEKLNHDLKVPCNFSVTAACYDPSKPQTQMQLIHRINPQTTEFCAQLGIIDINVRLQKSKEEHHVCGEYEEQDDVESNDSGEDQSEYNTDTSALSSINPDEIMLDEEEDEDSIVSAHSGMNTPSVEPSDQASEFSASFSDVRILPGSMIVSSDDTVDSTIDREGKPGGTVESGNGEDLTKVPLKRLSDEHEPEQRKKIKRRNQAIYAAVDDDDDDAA

[2] = target: T1, FLAG-tagged Dbr1 (human); remark: listed apart in the source
[3] = target: T2, FLAG-tagged Dbr1 (human), Q9UK59; conditions: remark: other sources report otherwise
T2 chain: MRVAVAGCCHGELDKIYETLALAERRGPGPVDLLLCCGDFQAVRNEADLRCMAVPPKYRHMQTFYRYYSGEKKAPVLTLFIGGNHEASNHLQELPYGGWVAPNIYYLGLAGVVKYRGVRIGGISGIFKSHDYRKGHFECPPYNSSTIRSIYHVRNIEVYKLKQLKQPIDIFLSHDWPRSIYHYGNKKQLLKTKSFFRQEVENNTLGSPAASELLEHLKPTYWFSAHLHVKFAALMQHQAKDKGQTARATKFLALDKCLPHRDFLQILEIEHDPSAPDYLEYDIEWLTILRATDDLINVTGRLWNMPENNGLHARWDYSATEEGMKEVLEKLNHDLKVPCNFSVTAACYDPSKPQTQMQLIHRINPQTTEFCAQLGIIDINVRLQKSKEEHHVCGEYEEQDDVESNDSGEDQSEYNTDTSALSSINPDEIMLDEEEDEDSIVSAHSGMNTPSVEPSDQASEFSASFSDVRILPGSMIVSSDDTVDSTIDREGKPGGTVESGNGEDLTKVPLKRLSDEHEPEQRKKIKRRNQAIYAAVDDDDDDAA

Molecule	binding [2]	other results
PTBP1 (from UniProt P26599 1-557)	–	binding [1]: binds
Cwf19L, the human homolog of yeast Drn1	–	binding [1]: binds
HNRNPL (protein, UniProt P14866 1-589) MSRRLLPRAEKRRRRLEQRQQPDEQRRRSGAMVKMAAAGGGGGGGRYYGGGSEGGRAPKRLKTDNAGDQHGGGGGGGGGAGAAGGGGGGENYDDPHKTPASPVVHIRGLIDGVVEADLVEALQEFGPISYVVVMPKKRQALVEFEDVLGACNAVNYAADNQIYIAGHPAFVNYSTSQKISRPGDSDDSRSVNSVLLFTILNPIYSITTDVLYTICNPCGPVQRIVIFRKNGVQAMVEFDSVQSAQRAKASLNGADIYSGCCTLKIEYAKPTRLNVFKNDQDTWDYTNPNLSGQGDPGSNPNKRQRQPPLLGDHPAEYGGPHGGYHSHYHDEGYGPPPPHYEGRRMGPPVGGHRRGPSRYGPQYGHPPPPPPPPEYGPHADSPVLMVYGLDQSKMNCDRVFNVFCLYGNVEKVKFMKSKPGAAMVEMADGYAVDRAITHLNNNFMFGQKLNVCVSKQPAIMPGQSYGLEDGSCSYKDFSESRNNRFSTPEQAAKNRIQHPSNVLHFFNAPLEVTEENFFEICDELGVKRPSSVKVFSGKSERSSSGLLEWESKSDALETLGFLNHYQMKNPNGPYPYTLKLCFSTAQHAS	binds	–
SRSF7 (protein, UniProt Q16629 1-238) MSRYGRYGGETKVYVGNLGTGAGKGELERAFSYYGPLRTVWIARNPPGFAFVEFEDPRDAEDAVRGLDGKVICGSRVRVELSTGMPRRSRFDRPPARRPFDPNDRCYECGEKGHYAYDCHRYSRRRRSRSRSRSHSRSRGRRYSRSRSRSRGRRSRSASPRRSRSISLRRSRSASLRRSRSGSIKGSRYFQSPSRSRSRSRSISRPRSSRSKSRSPSPKRSRSPSGSPRRSASPERMD	binds	–
XAB2 (protein, UniProt Q9HCS7 1-855) MVVMARLSRPERPDLVFEEEDLPYEEEIMRNQFSVKCWLRYIEFKQGAPKPRLNQLYERALKLLPCSYKLWYRYLKARRAQVKHRCVTDPAYEDVNNCHERAFVFMHKMPRLWLDYCQFLMDQGRVTHTRRTFDRALRALPITQHSRIWPLYLRFLRSHPLPETAVRGYRRFLKLSPESAEEYIEYLKSSDRLDEAAQRLATVVNDERFVSKAGKSNYQLWHELCDLISQNPDKVQSLNVDAIIRGGLTRFTDQLGKLWCSLADYYIRSGHFEKARDVYEEAIRTVMTVRDFTQVFDSYAQFEESMIAAKMETASELGREEEDDVDLELRLARFEQLISRRPLLLNSVLLRQNPHHVHEWHKRVALHQGRPREIINTYTEAVQTVDPFKATGKPHTLWVAFAKFYEDNGQLDDARVILEKATKVNFKQVDDLASVWCQCGELELRHENYDEALRLLRKATALPARRAEYFDGSEPVQNRVYKSLKVWSMLADLEESLGTFQSTKAVYDRILDLRIATPQIVINYAMFLEEHKYFEESFKAYERGISLFKWPNVSDIWSTYLTKFIARYGGRKLERARDLFEQALDGCPPKYAKTLYLLYAQLEEEWGLARHAMAVYERATRAVEPAQQYDMFNIYIKRAAEIYGVTHTRGIYQKAIEVLSDEHAREMCLRFADMECKLGEIDRARAIYSFCSQICDPRTTGAFWQTWKDFEVRHGNEDTIKEMLRIRRSVQATYNTQVNFMASQMLKVSGSATGTVSDLAPGQSGMDDMKLLEQRAEQLAAEAERDQPLRAQSKILFVRSDASREELAELAQQVNPEEIQLGEDEDEDEMDLEPNEVRLEQQSVPAAVFGSLKED	binds	–
PRP19, Q9UMS4 1-504 (protein) MSLICSISNEVPEHPCVSPVSNHVYERRLIEKYIAENGTDPINNQPLSEEQLIDIKVAHPIRPKPPSATSIPAILKALQDEWDAVMLHSFTLRQQLQTTRQELSHALYQHDAACRVIARLTKEVTAAREALATLKPQAGLIVPQAVPSSQPSVVGAGEPMDLGELVGMTPEIIQKLQDKATVLTTERKKRGKTVPEELVKPEELSKYRQVASHVGLHSASIPGILALDLCPSDTNKILTGGADKNVVVFDKSSEQILATLKGHTKKVTSVVFHPSQDLVFSASPDATIRIWSVPNASCVQVVRAHESAVTGLSLHATGDYLLSSSDDQYWAFSDIQTGRVLTKVTDETSGCSLTCAQFHPDGLIFGTGTMDSQIKIWDLKERTNVANFPGHSGPITSIAFSENGYYLATAADDSSVKLWDLRKLKNFKTLQLDNNFEVKSLIFDQSGTYLALGGTDVQIYICKQWTEILHFTEHSGLTTGVAFGHHAKFIASTGMDRSLKFYSL	–	binding [3]: binds
RBM22 (protein, UniProt Q9NW64 1-420) MATSLGSNTYNRQNWEDADFPILCQTCLGENPYIRMTKEKYGKECKICARPFTVFRWCPGVRMRFKKTEVCQTCSKLKNVCQTCLLDLEYGLPIQVRDAGLSFKDDMPKSDVNKEYYTQNMEREISNSDGTRPVGMLGKATSTSDMLLKLARTTPYYKRNRPHICSFWVKGECKRGEECPYRHEKPTDPDDPLADQNIKDRYYGINDPVADKLLKRASTMPRLDPPEDKTITTLYVGGLGDTITETDLRNHFYQFGEIRTITVVQRQQCAFIQFATRQAAEVAAEKSFNKLIVNGRRLNVKWGRSQAARGKEKEKDGTTDSGIKLEPVPGLPGALPPPPAAEEEASANYFNLPPSGPPAVVNIALPPPPGIAPPPPPGFGPHMFHPMGPPPPFMRAPGPIHYPSQDPQRMGAHAGKHSSP	binds	–
AQR, O60306 1-1485 (protein) MAAPAQPKKIVAPTVSQINAEFVTQLACKYWAPHIKKKSPFDIKVIEDIYEKEIVKSRFAIRKIMLLEFSQYLENYLWMNYSPEVSSKAYLMSICCMVNEKFRENVPAWEIFKKKPDHFPFFFKHILKAALAETDGEFSLHEQTVLLLFLDHCFNSLEVDLIRSQVQQLISLPMWMGLQLARLELELKKTPKLRKFWNLIKKNDEKMDPEAREQAYQERRFLSQLIQKFISVLKSVPLSEPVTMDKVHYCERFIELMIDLEALLPTRRWFNTILDDSHLLVHCYLSNLVRREEDGHLFSQLLDMLKFYTGFEINDQTGNALTENEMTTIHYDRITSLQRAAFAHFPELYDFALSNVAEVDTRESLVKFFGPLSSNTLHQVASYLCLLPTLPKNEDTTFDKEFLLELLVSRHERRISQIQQLNQMPLYPTEKIIWDENIVPTEYYSGEGCLALPKLNLQFLTLHDYLLRNFNLFRLESTYEIRQDIEDSVSRMKPWQSEYGGVVFGGWARMAQPIVAFTVVEVAKPNIGENWPTRVRADVTINLNVRDHIKDEWEGLRKHDVCFLITVRPTKPYGTKFDRRRPFIEQVGLVYVRGCEIQGMLDDKGRVIEDGPEPRPNLRGESRTFRVFLDPNQYQQDMTNTIQNGAEDVYETFNIIMRRKPKENNFKAVLETIRNLMNTDCVVPDWLHDIILGYGDPSSAHYSKMPNQIATLDFNDTFLSIEHLKASFPGHNVKVTVEDPALQIPPFRITFPVRSGKGKKRKDADVEDEDTEEAKTLIVEPHVIPNRGPYPYNQPKRNTIQFTHTQIEAIRAGMQPGLTMVVGPPGTGKTDVAVQIISNIYHNFPEQRTLIVTHSNQALNQLFEKIMALDIDERHLLRLGHGEEELETEKDFSRYGRVNYVLARRIELLEEVKRLQKSLGVPGDASYTCETAGYFFLYQVMSRWEEYISKVKNKGSTLPDVTEVSTFFPFHEYFANAPQPIFKGRSYEEDMEIAEGCFRHIKKIFTQLEEFRASELLRSGLDRSKYLLVKEAKIIAMTCTHAALKRHDLVKLGFKYDNILMEEAAQILEIETFIPLLLQNPQDGFSRLKRWIMIGDHHQLPPVIKNMAFQKYSNMEQSLFTRFVRVGVPTVDLDAQGRARASLCNLYNWRYKNLGNLPHVQLLPEFSTANAGLLYDFQLINVEDFQGVGESEPNPYFYQNLGEAEYVVALFMYMCLLGYPADKISILTTYNGQKHLIRDIINRRCGNNPLIGRPNKVTTVDRFQGQQNDYILLSLVRTRAVGHLRDVRRLVVAMSRARLGLYIFARVSLFQNCFELTPAFSQLTARPLHLHIIPTEPFPTTRKNGERPSHEVQIIKNMPQMANFVYNMYMHLIQTTHHYHQTLLQLPPAMVEEGEEVQNQETELETEEEAMTVQADIIPSPTDTSCRQETPAFQTDTTPSETGATSTPEAIPALSETTPTVVGAVSAPAEANTPQDATSAPEETK	–	binding [3]: binds

Where two headings read alike, the source gives them in different places. Results are given in words; binding and its absence hold for the method and conditions named. Binding seen in cells or lysates may run through a third protein. These calls come from enrichment with a bait or labelling near it, and not all partners need be listed. Tags and fused reporters may be left off the sequences shown.
